Assay results reported in PMC9106661.
No constants are given. Whether binding was seen depends on the method and setting. For some assays here: Binding seen in cells or lysates may run through a third protein. Some results given as binding are weak or reduced against the parent protein; the word gives no strength. For some assays here: Tags and fused reporters may be left off the sequences shown. Values belong to the binder of their own block, whether it stands above or below them.

The chains behind the UniProt entries cited, without tags or fusion partners. Where a name states a change or a piece, a line headed by the entry shows the natural chain unless it says otherwise. Residues count along the entry.
UniProt Q96H55: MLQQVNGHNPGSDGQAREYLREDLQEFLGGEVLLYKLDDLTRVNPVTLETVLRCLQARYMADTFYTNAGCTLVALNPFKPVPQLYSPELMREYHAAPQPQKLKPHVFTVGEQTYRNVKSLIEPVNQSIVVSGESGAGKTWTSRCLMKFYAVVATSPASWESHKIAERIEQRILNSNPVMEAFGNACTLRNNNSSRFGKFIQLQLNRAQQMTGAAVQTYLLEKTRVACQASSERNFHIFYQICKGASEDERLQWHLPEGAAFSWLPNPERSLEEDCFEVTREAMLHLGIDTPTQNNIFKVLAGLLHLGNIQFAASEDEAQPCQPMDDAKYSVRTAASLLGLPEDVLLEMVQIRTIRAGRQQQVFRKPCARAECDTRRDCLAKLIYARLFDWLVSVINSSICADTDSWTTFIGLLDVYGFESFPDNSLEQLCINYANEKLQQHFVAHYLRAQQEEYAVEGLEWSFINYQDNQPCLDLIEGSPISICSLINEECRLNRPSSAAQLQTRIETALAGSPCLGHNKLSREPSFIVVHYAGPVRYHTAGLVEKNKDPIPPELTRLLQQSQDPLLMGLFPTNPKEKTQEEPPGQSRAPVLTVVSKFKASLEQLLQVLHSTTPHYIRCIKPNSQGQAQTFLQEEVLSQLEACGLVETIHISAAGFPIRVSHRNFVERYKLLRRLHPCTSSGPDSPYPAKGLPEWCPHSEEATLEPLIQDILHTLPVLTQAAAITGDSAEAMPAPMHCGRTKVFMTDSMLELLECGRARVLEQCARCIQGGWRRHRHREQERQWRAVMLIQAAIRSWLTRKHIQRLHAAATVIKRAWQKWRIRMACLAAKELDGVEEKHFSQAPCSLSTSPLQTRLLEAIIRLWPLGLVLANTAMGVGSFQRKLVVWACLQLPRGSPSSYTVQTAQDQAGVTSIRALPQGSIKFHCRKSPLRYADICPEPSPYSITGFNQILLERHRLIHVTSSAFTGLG
MBP-Myo19^824-970-Flag: residues 824-970 of Q96H55

Columns and labels:
[1] = molecular target: MBP-Myo19^824-970-Flag (human) (UniProt Q96H55); test: pull-down; purified proteins incubated with Myo19^824-970 and Flag antibody in IP lysis buffer (150 mM NaCl, 25 mM Tris-HCl, 0.5% NP-40, pH 7.4) at 4 °C overnight, protein A/G beads, western blot; both purified
[2] = molecular target: Myosin 19 (human (endogenous in MDA-MB-231)) (UniProt Q96H55); test: co-IP; endogenous proteins in MDA-MB-231 lysate (150 mM NaCl, 25 mM Tris-HCl, 0.5% NP-40, pH 7.4), antibody and protein A/G beads at 4 °C, western blot; WT, Myo19 KO, Sam50 knockdown and Mic60-depleted cells
[3] = molecular target: Myo19-EGFP (knock-in) (human (endogenous in MDA-MB-231)) (UniProt Q96H55); test: proximity ligation; Duolink kit; Myo19-EGFP knock-in cells fixed with methanol; anti-GFP and anti-Sam50 antibodies
[4] = molecular target: full length (FL) Myo19 (1-970 aa)-Flag (human) (UniProt Q96H55); test: co-IP; C-terminally Flag-tagged Myo19 truncations expressed in HEK293T cells, endogenous partners detected by western blot
[5] = molecular target: Myo19 (BiFC construct) (human) (UniProt Q96H55); test: split reporter; BiFC in control and Miro1/2 double knockout cells

binding [1]: binds
B1: His-MBP-MTX3 (protein, UniProt Q5HYI7 1-312)
chain: MAAPLELSCWGGGWGLPSVHSESLVVMAYAKFSGAPLKVNVIDNTWRGSRGDVPILTTEDDMVSQPAKILNFLRKQKYNADYELSAKQGADTLAYIALLEEKLLPAVLHTFWVESDNYFTVTKPWFASQIPFPLSLILPGRMSKGALNRILLTRGQPPLYHLREVEAQIYRDAKECLNLLSNRLGTSQFFFGDTPSTLDAYVFGFLAPLYKVRFPKVQLQEHLKQLSNLCRFCDDILSSYFRLSLGGISPAGQETVDANLQKLTQLVNKESNLIEKMDDNLRQSPQLPPRKLPTLKLTPAEEENNSFQRLSP

binding [2]: binds | binding [3]: binds | binding [4]: binds
B2: Sam50 (protein, UniProt Q9Y512 1-469)
chain: MGTVHARSLEPLPSSGPDFGGLGEEAEFVEVEPEAKQEILENKDVVVQHVHFDGLGRTKDDIIICEIGDVFKAKNLIEVMRKSHEAREKLLRLGIFRQVDVLIDTCQGDDALPNGLDVTFEVTELRRLTGSYNTMVGNNEGSMVLGLKLPNLLGRAEKVTFQFSYGTKETSYGLSFFKPRPGNFERNFSVNLYKVTGQFPWSSLRETDRGMSAEYSFPIWKTSHTVKWEGVWRELGCLSRTASFAVRKESGHSLKSSLSHAMVIDSRNSSILPRRGALLKVNQELAGYTGGDVSFIKEDFELQLNKQLIFDSVFSASFWGGMLVPIGDKPSSIADRFYLGGPTSIRGFSMHSIGPQSEGDYLGGEAYWAGGLHLYTPLPFRPGQGGFGELFRTHFFLNAGNLCNLNYGEGPKAHIRKLAECIRWSYGAGIVLRLGNIARLELNYCVPMGVQTGDRICDGVQFGAGIRFL

binding [5]: binds
B3: Sam50 (BiFC construct) (protein, UniProt Q9Y512 1-469)
chain: MGTVHARSLEPLPSSGPDFGGLGEEAEFVEVEPEAKQEILENKDVVVQHVHFDGLGRTKDDIIICEIGDVFKAKNLIEVMRKSHEAREKLLRLGIFRQVDVLIDTCQGDDALPNGLDVTFEVTELRRLTGSYNTMVGNNEGSMVLGLKLPNLLGRAEKVTFQFSYGTKETSYGLSFFKPRPGNFERNFSVNLYKVTGQFPWSSLRETDRGMSAEYSFPIWKTSHTVKWEGVWRELGCLSRTASFAVRKESGHSLKSSLSHAMVIDSRNSSILPRRGALLKVNQELAGYTGGDVSFIKEDFELQLNKQLIFDSVFSASFWGGMLVPIGDKPSSIADRFYLGGPTSIRGFSMHSIGPQSEGDYLGGEAYWAGGLHLYTPLPFRPGQGGFGELFRTHFFLNAGNLCNLNYGEGPKAHIRKLAECIRWSYGAGIVLRLGNIARLELNYCVPMGVQTGDRICDGVQFGAGIRFL
